The values below come from paper doi:10.1101/2022.01.27.477315.

These are yes or no findings as the source states them, for the method shown. Binding seen in cells or lysates may run through a third protein. For some assays here: Binding calls can cover weak binding; strength is not graded here. Sequences can lack the tags named with a protein.

For assay [1], the target named is GST-LC3 aa29-128. The experiment in a line: pull-down.
The target of assay [2] is GST-LC3 aa29-128 truncated F52A mutant. The experiment in a line: pull-down.

B1: Myc-tagged FOXM1 (protein, UniProt Q08050 1-763)
chain: MKTSPRRPLILKRRRLPLPVQNAPSETSEEEPKRSPAQQESNQAEASKEVAESNSCKFPAGIKIINHPTMPNTQVVAIPNNANIHSIITALTAKGKESGSSGPNKFILISCGGAPTQPPGLRPQTQTSYDAKRTEVTLETLGPKPAARDVNLPRPPGALCEQKRETCADGEAAGCTINNSLSNIQWLRKMSSDGLGSRSIKQEMEEKENCHLEQRQVKVEEPSRPSASWQNSVSERPPYSYMAMIQFAINSTERKRMTLKDIYTWIEDHFPYFKHIAKPGWKNSIRHNLSLHDMFVRETSANGKVSFWTIHPSANRYLTLDQVFKPLDPGSPQLPEHLESQQKRPNPELRRNMTIKTELPLGARRKMKPLLPRVSSYLVPIQFPVNQSLVLQPSVKVPLPLAASLMSSELARHSKRVRIAPKVLLAEEGIAPLSSAGPGKEEKLLFGEGFSPLLPVQTIKEEEIQPGEEMPHLARPIKVESPPLEEWPSPAPSFKEESSHSWEDSSQSPTPRPKKSYSGLRSPTRCVSEMLVIQHRERRERSRSRRKQHLLPPCVDEPELLFSEGPSTSRWAAELPFPADSSDPASQLSYSQEVGGPFKTPIKETLPISSTPSKSVLPRTPESWRLTPPAKVGGLDFSPVQTSQGASDPLPDPLGLMDLSTTPLQSAPPLESPQRLLSSEPLDLISVPFGNSSPSDIDVPKPGSPEPQVSGLAANRSLTEGLVLDTMNDSLSKILLDISFPGLDEDPLGPDNINWSQFIPELQ
For the molecule B1, the values for the binding entry in assay [1] and in assay [2] were “binds” and “no binding”, respectively.
